We go through two molecules from publication PMC5871769.

No constants are given. Whether binding was seen depends on the method and setting. Binding calls can cover weak binding; strength is not graded here. For some assays here: In cells and extracts the contact can be indirect. For some assays here: Sequences can lack the tags named with a protein.

The target of assay [1] is BD-NIb (Turnip mosaic virus). In words: two-hybrid; yeast strain Y2H Gold; prey in pGADT7-DEST (AD), bait in pGBKT7-DEST (BD); growth on SD/-Trp-Leu-His-Ade.
The target of assay [2] is NIb (BiFC fusion) (Turnip mosaic virus). The assay is described as follows: split reporter; BiFC with YN and YC fragments of YFP in agroinfiltrated leaves of H2B-RFP transgenic N. benthamiana; confocal imaging at 48 hpi.

B1: AtATG6 (Y2H, pGAD-AtATG6) (protein, UniProt Q9M367-2 1-386)
chain: MRKEEIPDKSRTIPIDPNLPKWVCQNCHHSLTIVGVDSYAGKFFNDPPPSATQGSSIHGANSVLGSTRMDNSFVVLPRHKPPQSQGIPPRPRGASSPQPDATQSGKAMEESFVVVYKSEPVSDSGGSHNLSLEVGQNGPLHSNTSGFNATINVLTRAFDIARTQTQVEQPLCLECMRVLSDKLEKEVEDVTRDVEAYEACVQRLEGETQDVLSEADFLKEKKKIEEEERKLVAAIEETEKQNAEVNHQLKELEFKGNRFNELEDRYWQEFNNFQFQLIAHQEERDAILAKIEVSQAHLELLNKTNVLIDAFPIRNDGEFGTINNFRLGRLPAIKVEWDEINAAWGQACLLLHTMCNYFRPKFQYPYNYLTVLFLILPFLFDSVDCI
Consider B1, for which the binding result in assay [1] was “binds”.

B2: AtATG6 (BiFC fusion) (protein, UniProt Q9M367-2 1-386)
chain: B1 chain
Consider B2, for which the binding result in assay [2] is given as “binds”.
